Some results were stated once for a whole list of compounds, not compound by compound.
Biological target: T1, rat IKK2 (Rattus norvegicus, UniProt Q9QY78)
T1 construct: ORF of rat IKK2 (GenBank AF115282) was cloned from a rat pancreas cDNA library; FLAG; made in house; host or cells: Sf9 insect cells
T1 sequence (Q9QY78 1-757): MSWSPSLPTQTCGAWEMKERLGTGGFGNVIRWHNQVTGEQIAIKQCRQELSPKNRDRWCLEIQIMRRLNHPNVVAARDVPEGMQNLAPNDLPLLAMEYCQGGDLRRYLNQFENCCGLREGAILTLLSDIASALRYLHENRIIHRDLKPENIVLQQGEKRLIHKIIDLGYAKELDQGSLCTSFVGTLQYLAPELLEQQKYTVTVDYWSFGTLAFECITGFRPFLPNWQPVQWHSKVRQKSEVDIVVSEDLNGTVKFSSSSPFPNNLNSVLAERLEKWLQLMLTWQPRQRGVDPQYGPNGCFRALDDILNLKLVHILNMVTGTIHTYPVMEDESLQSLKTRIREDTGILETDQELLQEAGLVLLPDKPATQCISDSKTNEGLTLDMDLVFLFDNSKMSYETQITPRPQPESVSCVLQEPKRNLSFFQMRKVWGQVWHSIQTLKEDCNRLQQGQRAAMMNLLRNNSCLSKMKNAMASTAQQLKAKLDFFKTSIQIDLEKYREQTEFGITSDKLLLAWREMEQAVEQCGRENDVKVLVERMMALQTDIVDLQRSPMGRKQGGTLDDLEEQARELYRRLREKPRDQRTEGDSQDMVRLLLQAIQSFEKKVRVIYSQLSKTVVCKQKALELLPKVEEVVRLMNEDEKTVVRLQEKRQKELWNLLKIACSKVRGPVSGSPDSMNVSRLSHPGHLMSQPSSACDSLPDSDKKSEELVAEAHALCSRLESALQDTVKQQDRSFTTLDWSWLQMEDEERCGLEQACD
Assay: Evaluation of rat IKK2 enzyme inhibition
Assay type: biochemical
Conditions: 0.5 μM ATP, probit analysis; read-out: IC50, rat IKK2 enzyme activity-inhibitory effect
Description: (1) Evaluation of Rat IKK2 Enzyme Inhibition:
ORF of rat IKK2 (GenBank AF115282) was cloned from a rat pancreas cDNA library, and with a FLAG-tag attached thereto, it was expressed in an Sf9 cell line. The cells were dissolved in a cytolytic solution (50 mM Tris-HCl pH 7.5, 0.15M NaCl, 1% NP-40, 10% glycerol, 1 mM EDTA, 1 mM EGTA pH 7.5, 1 mM Na3VO4, 5 mM p-nitrophenylphosphate, 10 mM O-glycerophosphate, 1 mM DTT, 1 mM PMSF, 10 μg/ml leupeptin, 10 μg/ml aprotinin (by Sigma)) to prepare a large amount of an cell extract, which was then purified on an anti-FLAG M2 antibody (by Sigma). This experimental operation was carried out in accordance with gene manipulation experiment manuals such as known methods (Sambrook, J. et al, Molecular Cloning-A Laboratory Manual, Cold Spring Harbor laboratory, NY, 1989) or the instructions attached to the reagents. The purified rat IKK2 was stored in an enzyme preservative (20 mM Tris-HCl pH 7.5, 10% glycerol, 12.5 mM β-glycerophosphate, 0.5 mM EDTA, 0.5 mM EGTA, 0.05% Brij35, 1 mM DTT, 1 mM PMSF (by Sigma)) at −80° C. […]

Row | SMILES | IC50 [nM]
1 | Nc1nc(-c2c(O)cccc2OCC2CC2)cc(C2CCCNC2)n1 (centres unmarked) [Example 141] | ≤ 500
2 | Nc1nc(-c2c(O)cccc2OCC2CC2)cc(C2CCCNC2)n1 (centres unmarked) [Example 142] | ≤ 500
